# System: Reticulitermes virginicus
# Test: standard choice box test of termite bait compositions with killing agents
# Assay type: in vivo
# Settings: bait composition in microcrystalline cellulose powder
# Method: The termite bait active ingredients or killing agents diflubenzuron, emamectin benzoate and thiamethoxam were tested for their efficacy. The termite species tested was Reticulitermes virginicus. The methodology employed was the standard “choice box” test used in Example 1 in which termites were released into a central chamber with untreated wood. The central chamber was connected, using Tygon tubing (2 mm I D), with peripheral feeding chambers containing a termite bait composition of the invention (microcrystalline cellulose powder having an average particle size of 20 micrometers and a termite killing agent) or untreated pine wood. Each replicate was given the choice of one gram of the treated cellulose powder or three blocks (1 cm) of untreated pine wood. At the end of 25 or 37 days, the number of live termites was counted. At the same time, the amount of pine wood or termite bait composition consumed was measured. The treatments were replicated two times.
row,Compound,way of killing termites
1,"O=C(NC(=O)c1c(F)cccc1F)Nc1ccc(Cl)cc1 [Dimilin, diflubenzuron]",killed termites by ingestion
2,emamectin benzoate,killed termites by contact
3,"CN1COCN(Cc2cnc(Cl)s2)/C1=N\[N+](=O)[O-] [Thiamethoxam, thiamethoxam]",killed termites by contact
